Reference: publication PMC10322692
Results are given in words; binding and its absence hold for the method and conditions named. In cells and extracts the contact can be indirect. Some binding calls cover weakened binding; strength is not graded here.

Amino acid sequences for entries named in this document (tags omitted). Residues count along the entry.
UniProt P24394, residues 26-825: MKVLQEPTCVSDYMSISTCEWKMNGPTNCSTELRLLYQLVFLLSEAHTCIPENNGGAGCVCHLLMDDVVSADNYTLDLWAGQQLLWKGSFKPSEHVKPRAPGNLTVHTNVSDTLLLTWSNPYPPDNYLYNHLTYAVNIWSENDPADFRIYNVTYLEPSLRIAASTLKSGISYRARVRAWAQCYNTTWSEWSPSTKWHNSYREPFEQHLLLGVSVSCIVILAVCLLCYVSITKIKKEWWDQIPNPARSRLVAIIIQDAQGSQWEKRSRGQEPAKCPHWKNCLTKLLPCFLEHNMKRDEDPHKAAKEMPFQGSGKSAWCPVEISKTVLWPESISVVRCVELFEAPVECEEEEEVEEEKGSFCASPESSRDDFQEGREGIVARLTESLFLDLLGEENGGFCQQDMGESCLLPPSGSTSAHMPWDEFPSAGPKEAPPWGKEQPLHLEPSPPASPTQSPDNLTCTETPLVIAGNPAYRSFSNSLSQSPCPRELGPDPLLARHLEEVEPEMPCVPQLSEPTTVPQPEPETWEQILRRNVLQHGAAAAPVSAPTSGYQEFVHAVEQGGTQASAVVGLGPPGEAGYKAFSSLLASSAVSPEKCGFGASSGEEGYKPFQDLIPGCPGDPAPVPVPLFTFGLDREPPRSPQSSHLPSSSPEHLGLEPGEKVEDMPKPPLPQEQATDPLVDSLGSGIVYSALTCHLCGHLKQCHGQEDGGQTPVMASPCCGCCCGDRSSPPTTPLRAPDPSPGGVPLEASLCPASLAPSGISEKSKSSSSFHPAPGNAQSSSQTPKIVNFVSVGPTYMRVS

Biological target: IL-4Rα (UniProt P24394)
Assay: co-IP; co-immunoprecipitation from ZHX2-deficient podocytes; which protein was precipitated not given; method as previously described and in the Supplemental Methods

B1: ZHX1 (protein, UniProt Q9UKY1 1-873)
chain: MASRRKSTTPCMVLASEQDPDLELISDLDEGPPVLTPVENTRAESISSDEEVHESVDSDNQQNKKVEGGYECKYCTFQTPDLNMFTFHVDSEHPNVVLNSSYVCVECNFLTKRYDALSEHNLKYHPGEENFKLTMVKRNNQTIFEQTINDLTFDGSFVKEENAEQAESTEVSSSGISISKTPIMKMMKNKVENKRIAVHHNSVEDVPEEKENEIKPDREEIVENPSSSASESNTSTSIVNRIHPSTASTVVTPAAVLPGLAQVITAVSAQQNSNLIPKVLIPVNSIPTYNAALDNNPLLLNTYNKFPYPTMSEITVLSAQAKYTEEQIKIWFSAQRLKHGVSWTPEEVEEARRKQFNGTVHTVPQTITVIPTHISTGSNGLPSILQTCQIVGQPGLVLTQVAGTNTLPVTAPIALTVAGVPSQNNIQKSQVPAAQPTAETKPATAAVPTSQSVKHETALVNPDSFGIRAKKTKEQLAELKVSYLKNQFPHDSEIIRLMKITGLTKGEIKKWFSDTRYNQRNSKSNQCLHLNNDSSTTIIIDSSDETTESPTVGTAQPKQSWNPFPDFTPQKFKEKTAEQLRVLQASFLNSSVLTDEELNRLRAQTKLTRREIDAWFTEKKKSKALKEEKMEIDESNAGSSKEEAGETSPADESGAPKSGSTGKICKKTPEQLHMLKSAFVRTQWPSPEEYDKLAKESGLARTDIVSWFGDTRYAWKNGNLKWYYYYQSANSSSMNGLSSLRKRGRGRPKGRGRGRPRGRPRGSKRINNWDRGPSLIKFKTGTAILKDYYLKHKFLNEQDLDELVNKSHMGYEQVREWFAERQRRSELGIELFEENEEEDEVIDDQEEDEEETDDSDTWEPPRHVKRKLSKSDD
With B1 the binding was “binds”.
